Test results: patent EP0958822A1, “THE OCULAR HYPOTENSIVE ACTIVE COMPOSITIONS” (Lin, Tongho, priority 1996, dated 1998)
At least one compound was matched to its structure with a doubt left.

Columns and labels:
[1] = test system: ocular hypertensive rabbit; assay: Ocular blood flow measured with colored microspheres; format: in vivo, New Zealand white rabbits; conditions: retina, choroid, iris and ciliary body, 30 to 180 minutes
[2] = test system: New Zealand albino rabbits; assay: IOP recovery after hypertonic saline infusion (ocular hypertensive rabbit model); format: in vivo; conditions: for IOP recovery time: rabbits
Method: 1981, vol 13 pp72-79. New Zealand albino rabbits of either sex were used in the study. A 20 % hypertonic saline solution was infused at the speed of 1 ml […] for 10 minutes through the marginal ear vein with an infusion pump. […] Then the IOP of both eyes were measured with a Tono-Pen XL Tonometer (Mentor, Norwell , MA) at 30 minute and 10 minute intervals before the experiment. At the time of commencement, as well as at 10, 20, 40, 60, and 80 min intervals measurements were taken. Then measurements were repeated at every 30 minute intervals. […] The IOP recovery curve acquired had shifted to the right and below the curve of the controlled group.

main artery loop = assay: Vasodilatation effect: high K+ depolarizing solution-induced contraction of isolated main artery loop; conditions: guinea pig main artery

CN1CCN(C2=Nc3cc(Cl)ccc3Nc3ccccc32)CC1 [Clozapine]
ocular blood flow ([1]; 0.1% solution instilled in eye): significant increases in ocular blood flow | ocular blood flow ([1]; 0.25% solution instilled in eye): significant increases in ocular blood flow | ocular blood flow ([1]; 0.5% solution instilled in eye): significant increases in ocular blood flow | IOP recovery time ([2]; 0.1% drop solution instilled in eye): decreased IOP recovery time of rabbits more mildly | IOP recovery time ([2]; 0.25% drop solution instilled in eye): decreased IOP recovery time of rabbits more mildly | IOP recovery time ([2]; 0.5% drop solution, 50 µl instilled in eye, 20 % hypertonic saline infusion): able to decrease the IOP recovery time of rabbits | decreasing IOP ([2]; emulsified compared with non-emulsified drop solution, animals): same treatment result in decreasing IOP | contraction caused by K^+ (main artery loop; depolarizing solution KCl 100mM): could restrain contraction caused by K^+ | contraction caused by Ca (main artery loop; no separate method described): restrain the calculated contraction caused by Ca
